Assay [1] has as its target T1, GST-VAMP8 (VAMP8 residues 1-76, full cytoplasmic portion) (mouse) (UniProt O70404).
T1 sequence: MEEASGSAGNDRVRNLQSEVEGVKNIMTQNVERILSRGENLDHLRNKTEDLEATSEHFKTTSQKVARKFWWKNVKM
The assay can be described thus: ITC; VPiTC; 2 mM His6MycCALM_(ANTH) (WT or mutant) or GST cleaved Epsin_(ENTH) titrated in 37 injections of 4-8 μL into 0.15 mM GST-SNARE in the cell; 100 mM HEPES pH 7.4, 150 mM NaCl, 4 mM DTT; legends give a representative run with SEM of the fit, the text the average of all runs; both purified. On the technique in general: In ITC the heat of successive injections is recorded.

By UniProt entry, the sequences of proteins in these tests, tags left out. Residues count along the entry.
UniProt P63027, residues 1-96: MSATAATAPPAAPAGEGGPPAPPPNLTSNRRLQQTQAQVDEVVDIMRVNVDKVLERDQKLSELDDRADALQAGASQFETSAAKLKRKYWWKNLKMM
UniProt Q9Y6I3, residues 1-163: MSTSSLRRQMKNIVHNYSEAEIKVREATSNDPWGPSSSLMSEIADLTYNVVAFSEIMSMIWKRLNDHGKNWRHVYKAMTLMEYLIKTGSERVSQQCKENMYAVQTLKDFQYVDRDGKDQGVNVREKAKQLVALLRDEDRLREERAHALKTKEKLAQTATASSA

Assay [2] addresses GST-VAMP2 (VAMP2 residues 1-96) (human) (UniProt P63027). Described as above.
Assay [3] deals with T1, GST-VAMP8 (VAMP8 residues 1-76, full cytoplasmic portion) (mouse). Described as above. This is another data set of the same source.
Assay [4] has the same target. Kind of assay: pull-down; GST-tagged bait (SNARE or preformed, purified 1:1:1 SNARE complex, 2 nmoles) on glutathione beads, His6Myc-tagged prey; 20 mM HEPES pH 7.4, 150 mM NaCl, 4 mM DTT, 4 mM β-mercaptoethanol, 0.1% NP-40, 0.05% BSA; 4°C overnight; Coomassie gel and anti-myc western blot; both purified. (A western blot detects proteins with antibodies after separation by electrophoresis.)

Assay [5] has as its target T2, GSTVAMP8 L16PV23P (mouse) (UniProt O70404).
T2 sequence: T1 sequence with L16P, V23P
Kind of assay: ITC; VPiTC; 2 mM His6MycCALM_(ANTH) (WT or mutant) or GST cleaved Epsin_(ENTH) titrated in 37 injections of 4-8 μL into 0.15 mM GST-SNARE in the cell; 100 mM HEPES pH 7.4, 150 mM NaCl, 4 mM DTT; legends give a representative run with SEM of the fit, the text the average of all runs; both purified.

The target of assay [6] is T3, GSTVAMP8 K24AM27A (mouse, UniProt O70404 1-76, K24A | M27A).
T3 construct: VAMP8, mouse, residues 1-76; pGEX 4T2 VAMP8_(1-76) (mouse) 'and mutants thereof'; also called K24AM27A VAMP8; Lys24AlaMet27Ala mutant of VAMP8; source: E. coli BL21(DE3) pLysS, purified (glutathione sepharose, S200 gel filtration)
T3 sequence (looked up): T1 sequence with K24A, M27A
Described as above.

A further assay concerns the target T4, GSTVAMP8 M27A (mouse) (UniProt O70404).
T4 sequence: T1 sequence with M27A
The assay can be described thus: pull-down; GST-tagged bait (SNARE or preformed, purified 1:1:1 SNARE complex, 2 nmoles) on glutathione beads, His6Myc-tagged prey; 20 mM HEPES pH 7.4, 150 mM NaCl, 4 mM DTT, 4 mM β-mercaptoethanol, 0.1% NP-40, 0.05% BSA; 4°C overnight; Coomassie gel and anti-myc western blot; both purified.

The target in assay [7] is T5, GSTVAMP8 K24AM27A:SNAP23:Syntaxin3(195-253) SNARE complex (mouse | human) (UniProt O70404+O00161+Q13277).
T5 sequence 1: T1 sequence with K24A, M27A
T5 sequence 2: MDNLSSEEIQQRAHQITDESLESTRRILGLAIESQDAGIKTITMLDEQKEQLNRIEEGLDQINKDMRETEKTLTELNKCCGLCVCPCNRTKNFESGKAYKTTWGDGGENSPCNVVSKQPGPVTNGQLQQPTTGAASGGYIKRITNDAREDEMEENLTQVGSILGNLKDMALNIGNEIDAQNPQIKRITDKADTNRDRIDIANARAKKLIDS
T5 sequence 3: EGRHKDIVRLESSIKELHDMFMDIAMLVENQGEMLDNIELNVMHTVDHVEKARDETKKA
The description is as above.

The target in assay [8] is T6, GSTVAMP8:SNAP23:Syntaxin3(195-253) SNARE complex (wt VAMP8) (mouse | human) (UniProt O70404+O00161+Q13277).
T6 sequence 1: T1 sequence
T6 sequence 2: T5 sequence 2
T6 sequence 3: T5 sequence 3
The description is as above.

The target in assay [9] is T2, GSTVAMP8 L16PV23P (mouse). Described as above.
The target in assay [10] is T3, GSTVAMP8 K24AM27A. The assay is described as above.
Another assay deals with T7, GSTVAMP8 K24A (mouse) (UniProt O70404).
T7 sequence: T1 sequence with K24A
The description is as above.

Assay [11] concerns the target T8, GSTVAMP8 L44PL51P (mouse) (UniProt O70404).
T8 sequence: T1 sequence with L44P, L51P
The assay can be described thus: pull-down; SNARE complex formation: GST-VAMP8 incubated with a three fold molar excess of SNAP23 and syntaxin3 at 4°C for 48 hr in 20 mM HEPES pH 7.4, 500 mM NaCl, 4 mM DTT, 0.5% NP-40; purified on glutathione-sepharose, then S200 gel filtration; both purified. In general terms: In gel filtration, larger molecules generally elute earlier.

In assay [12] the target is T2, GSTVAMP8 L16PV23P (mouse). Described as above.

Changes are numbered by the printed parent chain. In names and notes the source's numbering stands. These are yes or no findings as the source states them, for the method shown. Some results given as binding are weak or reduced against the parent protein; the word gives no strength. For some assays here: Sequences can lack the tags named with a protein.

In the case of “Epsin1_(ENTH) (ENTH domain of epsin1, residues 1-163), GST cleaved (from UniProt Q9Y6I3 1-163) (domain or fragment)”, the binding entry in assay [1] and in [2] was “no binding (tested: 2 mM titrated into 0.15 mM GST-SNARE)” each time.

B1: CALM_(ANTH(1-264)), GST cleaved (domain or fragment, rat, UniProt O55012 1-264, looked up)
chain: MSGQSLTDRITAAQHSVTGSAVSKTVCKATTHEIMGPKKKHLDYLIQCTNEMNVNIPQLADSLFERTTNSSWVVVFKSLITTHHLMVYGNERFIQYLASRNTLFNLSNFLDKSGLQGYDMSTFIRRYSRYLNEKAVSYRQVAFDFTKVKRGADGVMRTMNTEKLLKTVPIIQNQMDALLDFNVNSNELTNGVINAAFMLLFKDAIRLFAAYNEGIINLLEKYFDMKKNQCKEGLDIYKKFLTRMTRISEFLKVAEQVGIDRGDI
notes: source: E. coli BL21(DE3) pLysS, purified (glutathione sepharose, thrombin cleavage of GST, S200 gel filtration); not shown: GST, N-terminal, cleaved
In the case of B1, the results for the binding result in assay [3] and in [4] were “no binding (tested: 2 mM titrated into 0.15 mM GST-SNARE)” and “no binding”, respectively.

B2: His6MycCALM_(ANTH) (CALM ANTH domain, residues 1-289) (domain or fragment, UniProt O55012 1-289)
chain: MSGQSLTDRITAAQHSVTGSAVSKTVCKATTHEIMGPKKKHLDYLIQCTNEMNVNIPQLADSLFERTTNSSWVVVFKSLITTHHLMVYGNERFIQYLASRNTLFNLSNFLDKSGLQGYDMSTFIRRYSRYLNEKAVSYRQVAFDFTKVKRGADGVMRTMNTEKLLKTVPIIQNQMDALLDFNVNSNELTNGVINAAFMLLFKDAIRLFAAYNEGIINLLEKYFDMKKNQCKEGLDIYKKFLTRMTRISEFLKVAEQVGIDRGDIPDLSQAPSSLLDALEQHLASLEGKK
Consider B2, for which the binding entry is listed as “no binding (tested: 2 mM titrated into 0.15 mM GST-SNARE)” in assay [5]; “no binding (tested: 2 mM titrated into 0.15 mM GST-SNARE)” with GSTVAMP8 K24AM27A [6]; “no binding” with GSTVAMP8 M27A (mouse); “no binding” in assay [7]; “no binding” in assay [8]; “no binding” in assay [9]. Besides, the binding entry with GSTVAMP8 K24AM27A [10] was “no binding”; in the assay with GSTVAMP8 K24A (mouse), “binds weakly”.

B3: His6MycCALM_(ANTH) I247D (domain or fragment, UniProt O55012 1-289)
chain: B2 chain with I247D
For the molecule B3, the binding entry in [4] is recorded as “no binding”.

B4: His6MycCALM_(ANTH) L251S (domain or fragment, UniProt O55012 1-289)
chain: B2 chain with L251S
For the molecule B4, the binding entry in assay [4] is “no binding”.

B5: His6MycCALM_(ANTH) F240A (domain or fragment, UniProt O55012 1-289)
chain: B2 chain with F240A
Consider B5, for which the binding entry in assay [4] was “no binding”.

B6: His6MycCALM_(ANTH) M244K (domain or fragment, UniProt O55012 1-289)
chain: B2 chain with M244K
For the molecule B6, the binding result in assay [3] was “no binding (tested: 2 mM titrated into 0.15 mM GST-SNARE)”; in assay [4] it was “no binding”.

B7: His6MycCALM_(ANTH) L219S (domain or fragment, UniProt O55012 1-289)
chain: B2 chain with L219S
B7: the binding entry is listed as “no binding (tested: 2 mM titrated into 0.15 mM GST-SNARE)” in [3] and “no binding” in assay [4].

B8: SNAP23, GST cleaved (protein, UniProt O00161 1-211)
chain: T5 sequence 2
As to B8, the binding entry in [11] and in assay [12] was “no binding” in each case.

B9: syntaxin3 (residues 195-253), GST cleaved (domain or fragment, human, UniProt Q13277 195-253, looked up)
chain: T5 sequence 3
notes: syntaxin3, human, residues 195-253; Construct pGEX 4T1syntaxin3_((195-253)) (human); also called syntaxin3_((195-253)); Synatxin3(195–253); source: E. coli BL21(DE3) pLysS, purified (glutathione sepharose, thrombin cleavage of GST); not shown: GST, N-terminal, cleaved
Regarding B9, the binding result in assay [11] and in assay [12] was “no binding” in each case.

The record behind these values is publication PMC3267021, “The Molecular Basis for the Endocytosis of Small R-SNAREs by the Clathrin Adaptor CALM” (Cell, 2011).
